Assay [1] concerns the target RhoA (endogenous, active GTP-bound form) (mouse (endogenous in mouse aortic VSMCs)) (UniProt Q9QUI0). The assay is described as follows: pull-down; extracts of control VSMCs after saline or AngII incubated overnight at 4 °C with GST-mDia Rho-binding domain on glutathione Sepharose to collect GTP-bound RhoA; 50 mmol/L Tris/HCl pH 7.5, 0.5 mol/L NaCl, 10 mmol/L MgCl2, 1% Triton X-100; western blot with anti-Set and anti-RhoA. On the technique in general: Immunoblotting shows a protein as a band on a membrane.

Chains of the proteins cited; added tags and fusions are not shown.
UniProt Q9QUI0: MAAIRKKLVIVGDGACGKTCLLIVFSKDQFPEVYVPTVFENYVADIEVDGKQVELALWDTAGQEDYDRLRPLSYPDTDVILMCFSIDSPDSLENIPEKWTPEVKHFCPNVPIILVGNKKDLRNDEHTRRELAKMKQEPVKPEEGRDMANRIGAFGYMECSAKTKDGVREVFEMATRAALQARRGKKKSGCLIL
UniProt Q6PDN3: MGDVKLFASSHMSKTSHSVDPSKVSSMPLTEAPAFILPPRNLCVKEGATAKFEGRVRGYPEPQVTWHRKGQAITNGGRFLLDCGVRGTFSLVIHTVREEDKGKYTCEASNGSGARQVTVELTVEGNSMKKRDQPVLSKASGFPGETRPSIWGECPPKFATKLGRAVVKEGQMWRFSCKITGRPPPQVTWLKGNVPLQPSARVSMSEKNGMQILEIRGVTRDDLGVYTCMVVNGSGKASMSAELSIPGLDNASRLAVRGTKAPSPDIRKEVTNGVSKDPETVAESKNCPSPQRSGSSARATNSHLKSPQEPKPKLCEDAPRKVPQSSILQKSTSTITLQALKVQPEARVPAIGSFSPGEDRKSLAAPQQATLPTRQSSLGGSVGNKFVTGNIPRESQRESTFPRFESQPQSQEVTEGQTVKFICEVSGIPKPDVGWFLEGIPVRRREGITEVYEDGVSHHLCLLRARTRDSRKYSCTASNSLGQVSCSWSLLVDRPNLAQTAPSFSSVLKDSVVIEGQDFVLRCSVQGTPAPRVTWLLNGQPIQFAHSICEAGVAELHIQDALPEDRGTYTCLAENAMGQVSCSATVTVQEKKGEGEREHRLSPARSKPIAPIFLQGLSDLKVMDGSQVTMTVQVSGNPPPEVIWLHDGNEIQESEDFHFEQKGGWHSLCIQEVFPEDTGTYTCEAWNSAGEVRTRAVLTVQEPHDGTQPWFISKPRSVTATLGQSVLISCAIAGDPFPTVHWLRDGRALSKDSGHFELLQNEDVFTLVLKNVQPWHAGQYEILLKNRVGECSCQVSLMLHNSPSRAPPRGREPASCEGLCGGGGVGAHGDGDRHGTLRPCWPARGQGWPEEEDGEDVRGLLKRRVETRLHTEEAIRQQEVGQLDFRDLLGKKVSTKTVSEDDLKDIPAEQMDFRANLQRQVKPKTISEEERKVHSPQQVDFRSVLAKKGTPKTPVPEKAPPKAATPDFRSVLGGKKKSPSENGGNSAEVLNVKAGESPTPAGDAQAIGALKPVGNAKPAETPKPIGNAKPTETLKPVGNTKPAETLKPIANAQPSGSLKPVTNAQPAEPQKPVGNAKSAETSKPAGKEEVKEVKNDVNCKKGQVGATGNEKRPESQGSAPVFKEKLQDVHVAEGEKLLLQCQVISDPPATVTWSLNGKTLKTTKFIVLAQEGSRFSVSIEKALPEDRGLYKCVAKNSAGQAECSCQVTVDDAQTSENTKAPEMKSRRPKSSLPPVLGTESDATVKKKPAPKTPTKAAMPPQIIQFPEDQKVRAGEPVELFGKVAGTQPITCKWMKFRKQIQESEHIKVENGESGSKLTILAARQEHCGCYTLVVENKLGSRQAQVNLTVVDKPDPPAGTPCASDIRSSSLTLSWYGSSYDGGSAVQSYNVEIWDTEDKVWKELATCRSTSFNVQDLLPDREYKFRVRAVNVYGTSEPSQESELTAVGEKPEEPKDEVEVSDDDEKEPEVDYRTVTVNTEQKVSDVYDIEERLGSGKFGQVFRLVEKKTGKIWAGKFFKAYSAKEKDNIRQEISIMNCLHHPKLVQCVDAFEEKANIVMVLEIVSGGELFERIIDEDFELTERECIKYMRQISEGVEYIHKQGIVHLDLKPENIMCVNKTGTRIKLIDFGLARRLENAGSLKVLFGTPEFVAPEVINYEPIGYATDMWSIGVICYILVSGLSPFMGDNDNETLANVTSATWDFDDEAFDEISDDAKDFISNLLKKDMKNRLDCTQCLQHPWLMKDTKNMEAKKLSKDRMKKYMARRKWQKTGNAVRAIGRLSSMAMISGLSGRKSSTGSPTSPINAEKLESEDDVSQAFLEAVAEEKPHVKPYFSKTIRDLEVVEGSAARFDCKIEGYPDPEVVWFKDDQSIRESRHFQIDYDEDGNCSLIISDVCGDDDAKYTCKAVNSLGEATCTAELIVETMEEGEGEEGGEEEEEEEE
UniProt Q9EQU5: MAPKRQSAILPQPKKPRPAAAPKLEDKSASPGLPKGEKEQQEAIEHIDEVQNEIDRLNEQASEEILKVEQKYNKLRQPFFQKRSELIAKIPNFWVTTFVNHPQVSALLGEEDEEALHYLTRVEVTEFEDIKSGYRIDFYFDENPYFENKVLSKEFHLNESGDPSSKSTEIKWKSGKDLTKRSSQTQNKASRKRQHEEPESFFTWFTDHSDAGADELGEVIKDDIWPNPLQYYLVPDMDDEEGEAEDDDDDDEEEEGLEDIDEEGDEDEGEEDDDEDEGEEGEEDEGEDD
UniProt P97820: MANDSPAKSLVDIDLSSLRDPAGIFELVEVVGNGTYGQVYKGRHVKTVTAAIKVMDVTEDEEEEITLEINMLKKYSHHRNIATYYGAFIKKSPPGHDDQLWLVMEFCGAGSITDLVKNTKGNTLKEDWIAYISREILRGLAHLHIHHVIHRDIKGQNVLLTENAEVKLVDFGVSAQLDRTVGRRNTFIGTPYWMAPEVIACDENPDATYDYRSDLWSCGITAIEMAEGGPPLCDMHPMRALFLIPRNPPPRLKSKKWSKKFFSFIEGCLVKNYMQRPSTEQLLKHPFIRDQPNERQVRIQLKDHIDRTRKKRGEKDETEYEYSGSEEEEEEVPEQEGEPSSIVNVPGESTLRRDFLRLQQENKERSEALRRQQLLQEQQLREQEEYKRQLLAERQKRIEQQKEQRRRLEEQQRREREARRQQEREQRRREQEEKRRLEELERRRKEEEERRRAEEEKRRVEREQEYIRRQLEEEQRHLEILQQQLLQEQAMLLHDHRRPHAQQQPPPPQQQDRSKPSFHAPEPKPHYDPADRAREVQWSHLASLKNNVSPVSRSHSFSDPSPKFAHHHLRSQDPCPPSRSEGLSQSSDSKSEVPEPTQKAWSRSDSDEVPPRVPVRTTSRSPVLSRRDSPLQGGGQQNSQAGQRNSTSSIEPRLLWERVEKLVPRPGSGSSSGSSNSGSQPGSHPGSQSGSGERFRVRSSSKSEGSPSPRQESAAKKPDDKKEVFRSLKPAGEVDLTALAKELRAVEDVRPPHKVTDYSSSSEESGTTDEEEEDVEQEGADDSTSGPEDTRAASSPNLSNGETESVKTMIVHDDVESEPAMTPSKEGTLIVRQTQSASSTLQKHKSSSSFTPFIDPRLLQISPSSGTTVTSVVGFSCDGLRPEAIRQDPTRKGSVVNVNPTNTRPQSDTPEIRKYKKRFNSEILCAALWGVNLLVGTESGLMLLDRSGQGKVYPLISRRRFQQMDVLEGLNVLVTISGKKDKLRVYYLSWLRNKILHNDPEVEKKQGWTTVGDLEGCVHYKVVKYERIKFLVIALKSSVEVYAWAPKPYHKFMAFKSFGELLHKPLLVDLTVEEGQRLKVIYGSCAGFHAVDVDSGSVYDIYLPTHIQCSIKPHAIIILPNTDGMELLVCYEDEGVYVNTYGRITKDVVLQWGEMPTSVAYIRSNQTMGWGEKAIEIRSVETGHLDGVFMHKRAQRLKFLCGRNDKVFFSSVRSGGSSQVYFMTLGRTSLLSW

In assay [2] the target is myosin light chain kinase (MYLK) (mouse (endogenous in mouse aortic VSMCs)) (UniProt Q6PDN3). Nature of the assay: co-IP; lysates of mouse aortic VSMCs, pre-cleared with protein G Sepharose, indicated primary antibody overnight at 4 °C, protein G Sepharose 2 h, washed with RIPA buffer, western blot; IgG as negative control.

These are yes or no findings as the source states them, for the method shown. In cells and extracts the contact can be indirect. Some binding calls cover weakened binding; strength is not graded here.

As for “Set (endogenous) (from UniProt Q9EQU5 1-289)”, the binding entry in assay [1] is “binds”.

Consider “mitogen-activated protein kinase kinase kinase kinase 4 (MAP4K4) (from UniProt P97820 1-1233) (enzyme)”, for which, in assay [2], the binding entry was “binds”.

The record behind these values is paper PMC9546906.
